Results are given in words; binding and its absence hold for the method and conditions named. In cells and extracts the contact can be indirect. Some results given as binding are weak or reduced against the parent protein; the word gives no strength. For some assays here: Tags and fused reporters may be left off the sequences shown.
T1: CEP120 (UniProt Q8N960)
T1 sequence: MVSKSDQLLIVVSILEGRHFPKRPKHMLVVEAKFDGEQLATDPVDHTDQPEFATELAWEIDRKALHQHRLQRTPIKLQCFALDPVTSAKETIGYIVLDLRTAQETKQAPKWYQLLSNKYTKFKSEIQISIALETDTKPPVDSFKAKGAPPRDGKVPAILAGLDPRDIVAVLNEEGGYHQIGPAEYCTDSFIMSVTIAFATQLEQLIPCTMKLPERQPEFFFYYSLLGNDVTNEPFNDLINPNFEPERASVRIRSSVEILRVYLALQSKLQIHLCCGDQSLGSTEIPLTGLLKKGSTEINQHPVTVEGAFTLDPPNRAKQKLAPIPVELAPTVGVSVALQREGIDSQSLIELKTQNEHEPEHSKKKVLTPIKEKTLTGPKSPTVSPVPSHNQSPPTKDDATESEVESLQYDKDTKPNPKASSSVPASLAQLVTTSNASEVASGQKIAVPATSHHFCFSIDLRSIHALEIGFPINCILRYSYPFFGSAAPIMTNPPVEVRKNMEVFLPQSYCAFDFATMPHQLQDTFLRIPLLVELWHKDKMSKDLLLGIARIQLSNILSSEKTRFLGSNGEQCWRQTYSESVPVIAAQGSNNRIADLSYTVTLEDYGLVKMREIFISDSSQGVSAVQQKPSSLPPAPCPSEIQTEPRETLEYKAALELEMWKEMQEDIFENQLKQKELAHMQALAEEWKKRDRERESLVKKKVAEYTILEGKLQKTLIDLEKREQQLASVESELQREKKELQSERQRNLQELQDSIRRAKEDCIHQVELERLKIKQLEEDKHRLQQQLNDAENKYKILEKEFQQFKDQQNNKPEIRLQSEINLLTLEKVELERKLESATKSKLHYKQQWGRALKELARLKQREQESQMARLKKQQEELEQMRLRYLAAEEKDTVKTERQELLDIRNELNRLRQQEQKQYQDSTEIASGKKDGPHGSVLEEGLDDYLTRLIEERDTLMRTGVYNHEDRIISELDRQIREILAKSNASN

The chains behind the UniProt entries cited, without tags or fusion partners.
UniProt Q4AC94: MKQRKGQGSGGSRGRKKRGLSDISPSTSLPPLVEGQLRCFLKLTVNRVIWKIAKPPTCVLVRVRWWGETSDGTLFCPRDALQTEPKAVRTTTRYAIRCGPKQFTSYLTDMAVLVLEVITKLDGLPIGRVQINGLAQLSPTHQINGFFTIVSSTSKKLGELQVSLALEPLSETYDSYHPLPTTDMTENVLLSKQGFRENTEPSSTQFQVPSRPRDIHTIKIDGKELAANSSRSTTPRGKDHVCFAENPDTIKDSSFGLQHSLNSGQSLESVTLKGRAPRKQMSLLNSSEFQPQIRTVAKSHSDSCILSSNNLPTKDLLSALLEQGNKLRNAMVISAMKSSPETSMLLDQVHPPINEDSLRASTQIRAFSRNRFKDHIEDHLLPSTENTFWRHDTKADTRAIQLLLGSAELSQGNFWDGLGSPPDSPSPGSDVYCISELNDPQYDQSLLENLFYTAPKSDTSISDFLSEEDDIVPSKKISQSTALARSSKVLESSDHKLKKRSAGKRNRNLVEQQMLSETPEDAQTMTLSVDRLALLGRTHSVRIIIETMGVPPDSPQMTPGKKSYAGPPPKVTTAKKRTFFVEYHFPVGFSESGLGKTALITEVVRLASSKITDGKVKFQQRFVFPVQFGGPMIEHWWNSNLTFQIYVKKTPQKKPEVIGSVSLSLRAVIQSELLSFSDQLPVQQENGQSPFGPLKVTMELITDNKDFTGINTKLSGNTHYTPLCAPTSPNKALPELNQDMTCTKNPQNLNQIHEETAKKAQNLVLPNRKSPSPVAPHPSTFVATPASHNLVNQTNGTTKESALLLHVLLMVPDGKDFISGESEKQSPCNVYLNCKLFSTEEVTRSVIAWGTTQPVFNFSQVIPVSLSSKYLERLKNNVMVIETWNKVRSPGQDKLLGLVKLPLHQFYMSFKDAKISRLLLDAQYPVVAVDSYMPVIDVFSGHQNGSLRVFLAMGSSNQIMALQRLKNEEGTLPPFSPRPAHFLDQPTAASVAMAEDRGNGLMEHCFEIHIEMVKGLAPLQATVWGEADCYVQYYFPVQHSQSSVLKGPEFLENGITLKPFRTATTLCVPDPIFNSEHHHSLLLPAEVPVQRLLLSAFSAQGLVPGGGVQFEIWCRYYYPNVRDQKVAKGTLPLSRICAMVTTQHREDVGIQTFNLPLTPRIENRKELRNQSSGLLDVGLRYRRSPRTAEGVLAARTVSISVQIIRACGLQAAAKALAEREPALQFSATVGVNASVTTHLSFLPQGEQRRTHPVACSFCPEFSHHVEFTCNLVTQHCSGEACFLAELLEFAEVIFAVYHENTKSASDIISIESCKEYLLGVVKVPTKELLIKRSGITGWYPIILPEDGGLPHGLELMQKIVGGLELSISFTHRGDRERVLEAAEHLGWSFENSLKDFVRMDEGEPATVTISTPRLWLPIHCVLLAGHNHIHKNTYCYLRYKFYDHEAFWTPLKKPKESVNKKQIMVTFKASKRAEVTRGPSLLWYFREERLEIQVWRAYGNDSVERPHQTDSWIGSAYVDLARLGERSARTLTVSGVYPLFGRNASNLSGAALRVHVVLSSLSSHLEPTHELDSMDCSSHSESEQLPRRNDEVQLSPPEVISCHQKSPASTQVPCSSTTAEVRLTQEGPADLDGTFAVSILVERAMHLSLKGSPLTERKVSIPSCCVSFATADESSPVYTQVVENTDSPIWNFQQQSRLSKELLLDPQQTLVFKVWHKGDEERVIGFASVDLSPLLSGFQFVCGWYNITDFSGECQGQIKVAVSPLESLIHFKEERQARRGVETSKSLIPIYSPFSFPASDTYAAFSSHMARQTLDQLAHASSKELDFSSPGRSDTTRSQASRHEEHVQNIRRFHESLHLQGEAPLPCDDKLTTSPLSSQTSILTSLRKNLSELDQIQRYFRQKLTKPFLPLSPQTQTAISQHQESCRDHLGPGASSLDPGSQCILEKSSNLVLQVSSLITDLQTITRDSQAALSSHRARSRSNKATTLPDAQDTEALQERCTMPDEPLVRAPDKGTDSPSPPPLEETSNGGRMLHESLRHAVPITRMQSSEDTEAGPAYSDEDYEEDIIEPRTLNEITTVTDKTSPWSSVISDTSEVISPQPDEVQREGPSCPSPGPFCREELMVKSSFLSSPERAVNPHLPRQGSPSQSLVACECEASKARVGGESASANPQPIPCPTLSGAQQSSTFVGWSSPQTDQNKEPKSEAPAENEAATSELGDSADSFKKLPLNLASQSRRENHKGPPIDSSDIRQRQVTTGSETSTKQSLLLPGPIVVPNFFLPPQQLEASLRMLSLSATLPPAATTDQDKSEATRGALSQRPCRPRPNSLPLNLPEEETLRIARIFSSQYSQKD

T2: Talpid3 residues 466–1533, N-terminally Flag-tagged (human) (UniProt Q9BVV6)
T2 sequence: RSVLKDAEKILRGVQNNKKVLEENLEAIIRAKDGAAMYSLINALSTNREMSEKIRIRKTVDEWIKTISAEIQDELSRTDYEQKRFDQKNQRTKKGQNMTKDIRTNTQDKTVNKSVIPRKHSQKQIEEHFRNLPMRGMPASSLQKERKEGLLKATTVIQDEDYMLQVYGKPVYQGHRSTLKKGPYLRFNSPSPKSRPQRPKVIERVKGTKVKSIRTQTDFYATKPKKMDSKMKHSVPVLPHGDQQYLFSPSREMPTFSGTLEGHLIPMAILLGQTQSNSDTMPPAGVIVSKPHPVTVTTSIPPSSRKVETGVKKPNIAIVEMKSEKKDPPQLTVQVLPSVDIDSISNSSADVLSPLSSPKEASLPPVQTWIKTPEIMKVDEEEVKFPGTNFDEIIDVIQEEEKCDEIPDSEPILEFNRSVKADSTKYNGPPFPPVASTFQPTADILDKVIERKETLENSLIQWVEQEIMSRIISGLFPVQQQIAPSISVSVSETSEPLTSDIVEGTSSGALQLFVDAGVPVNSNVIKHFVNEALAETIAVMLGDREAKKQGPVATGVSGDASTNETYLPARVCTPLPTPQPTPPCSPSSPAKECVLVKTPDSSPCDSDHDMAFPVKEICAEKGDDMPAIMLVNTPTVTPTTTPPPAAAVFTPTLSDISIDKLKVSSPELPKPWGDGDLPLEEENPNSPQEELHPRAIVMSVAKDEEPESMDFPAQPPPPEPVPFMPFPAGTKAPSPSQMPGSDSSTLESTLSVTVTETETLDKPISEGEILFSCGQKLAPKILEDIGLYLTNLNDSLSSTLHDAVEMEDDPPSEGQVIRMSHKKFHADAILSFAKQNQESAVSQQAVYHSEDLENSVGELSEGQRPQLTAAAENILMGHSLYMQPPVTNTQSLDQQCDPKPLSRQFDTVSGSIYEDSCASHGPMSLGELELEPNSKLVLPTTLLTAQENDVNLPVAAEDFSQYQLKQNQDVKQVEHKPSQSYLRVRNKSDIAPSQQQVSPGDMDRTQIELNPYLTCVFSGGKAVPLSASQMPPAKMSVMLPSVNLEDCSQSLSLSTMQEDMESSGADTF

B1: Talpid3 fragment spanning residues 466–1000, Myc-tagged (domain or fragment, UniProt Q9BVV6 466-1000)
chain: RSVLKDAEKILRGVQNNKKVLEENLEAIIRAKDGAAMYSLINALSTNREMSEKIRIRKTVDEWIKTISAEIQDELSRTDYEQKRFDQKNQRTKKGQNMTKDIRTNTQDKTVNKSVIPRKHSQKQIEEHFRNLPMRGMPASSLQKERKEGLLKATTVIQDEDYMLQVYGKPVYQGHRSTLKKGPYLRFNSPSPKSRPQRPKVIERVKGTKVKSIRTQTDFYATKPKKMDSKMKHSVPVLPHGDQQYLFSPSREMPTFSGTLEGHLIPMAILLGQTQSNSDTMPPAGVIVSKPHPVTVTTSIPPSSRKVETGVKKPNIAIVEMKSEKKDPPQLTVQVLPSVDIDSISNSSADVLSPLSSPKEASLPPVQTWIKTPEIMKVDEEEVKFPGTNFDEIIDVIQEEEKCDEIPDSEPILEFNRSVKADSTKYNGPPFPPVASTFQPTADILDKVIERKETLENSLIQWVEQEIMSRIISGLFPVQQQIAPSISVSVSETSEPLTSDIVEGTSSGALQLFVDAGVPVNSNVIKHFVNEALAE
B2: Talpid3 1–602 fragment, Myc-tagged (domain or fragment, UniProt Q9BVV6 1-602)
chain: MPVKRLREVVSQNHGDHLVLLKDELPCVPPALSANKRLPVGTGTSLNGTSRGSSDLTSARNCYQPLLENPMVSESDFSKDVAVQVLPLDKIEENNKQKANDIFISQYTMGQKDALRTVLKQKAQSMPVFKEVKVHLLEDAGIEKDAVTQETRISPSGIDSATTVAAATAAAIATAAPLIKVQSDLEAKVNSVTELLSKLQETDKHLQRVTEQQTSIQRKQEKLHCHDHEKQMNVFMEQHIRHLEKLQQQQIDIQTHFISAALKTSSFQPVSMPSSRAVEKYSVKPEHPNLGSCNPSLYNTFASKQAPLKEVEDTSFDKQKSPLETPAPRRFAPVPVSRDDELSKRENLLEEKENMEVSCHRGNVRLLEQILNNNDSLTRKSESSNTTSLTRSKIGWTPEKTNRFPSCEELETTKVTMQKSDDVLHDLGQKEKETNSMVQPKESLSMLKLPDLPQNSVKLQTTNTTRSVLKDAEKILRGVQNNKKVLEENLEAIIRAKDGAAMYSLINALSTNREMSEKIRIRKTVDEWIKTISAEIQDELSRTDYEQKRFDQKNQRTKKGQNMTKDIRTNTQDKTVNKSVIPRKHSQKQIEEHFRNLPMRGM

Tests used:
CEP120 = biological target: T1, CEP120; test: co-IP; Supplementary Fig. 3: Talpid3 truncations and mutant tested with CEP120; cells lysed in ELB buffer (50 mM Hepes pH 7, 150 mM NaCl, 5 mM EDTA, 0.1% NP-40, 1 mM DTT, 10% glycerol); Flag-CEP120 immunoprecipitated, co-immunoprecipitated Myc-Talpid3 blotted
[1] = biological target: Talpid3, full-length (1–1533), N-terminally Flag-tagged (human) (UniProt Q9BVV6); test: co-IP; Fig. 4d: 293T cells stably expressing N-terminally Myc-tagged C2CD3 and N-terminally Flag-tagged Talpid3; immunoprecipitated with anti-Flag antibody; eluates immunoblotted
[2] = biological target: T2, Talpid3 residues 466–1533, N-terminally Flag-tagged (human); test: as above

Molecule | binding (CEP120) | binding [1] | binding [2]
Talpid3, full-length (1–1533), Myc-tagged (from UniProt Q9BVV6 1-1533) | binds | – | –
C2CD3, N-terminally Myc-tagged (from UniProt Q4AC94 1-2353) | – | binds | binds
B1 | binds | – | –
B2 | binds | – | –

Source: paper PMC6158247
